Assay results published in PubChem BioAssay AID504834 (National Center for Advancing Translational Sciences (NCATS), 2011).
Values joined by “and” are separate entries in the source; they are usually repeats but may differ in a detail not shown here. Equal values may be shown once. Out of some 320,000 compounds screened, about 22,000 (6.9%) were called active. The shares of active, inactive and inconclusive entries below differ from those in the screen. Calls follow the shape of the dose curve; as a rule, active = well fitted inhibition curve with a large enough effect; inconclusive = small, poorly fitted or top-dose-only effect, or another doubt; inactive = no such curve, though single readings can be large or run the other way. Potencies of inconclusive entries are doubtful fits and often do not repeat. A structure can be active in one record and inactive in another.
% is scaled to controls: 0 for no effect and ±100 for the full control effect; potency is read from the fitted curve at half-maximal effect.

Test: Primary qHTS for delayed death inhibitors of the malarial parasite plastid, 96 hour incubation
Conditions: P. falciparum luciferase reporter growth; series mostly up to 28.7 µM; activity change, negative = inhibition: at the top concentration
Method in brief: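 Erythrocytes infected with luciferase-expressing P. falciparum were dispensed at 2% hematocrit and 0.05% parasitemia (final), then incubated with compounds 96 hours at 37 C in 5% CO2. Luminescence after detection reagent addition reported growth.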
With CC(C)c1nnc(NC(=O)c2cccs2)s1 the “activity change, negative = inhibition” value was inactive: 220%. In the case of Cc1ccc(C(=O)Nc2nc(=O)n(C(=O)CC(C)C)s2)cc1, the “activity change, negative = inhibition” value is reported as inactive: -4.54%. In the case of O=C(Nc1cccc(O)c1)c1cccc(S(=O)(=O)Nc2cccc(O)c2)c1, the Potency is reported as active: 1.85 µM. With COc1ccc(NC(=O)c2cc(-c3ccccc3)nc3c2cnn3C(C)C)c(OC)c1 the Potency was inconclusive: 11.7 µM [inhibitor, single point]. With O=C(CCCc1nc2ccccc2s1)NCc1ccccc1F the “activity change, negative = inhibition” value was inactive: 3.13%. For COc1ccc(S(=O)(=O)NCC2CCCO2)cc1NC(=O)c1ccccc1 (stereo unspecified), the Potency was inconclusive: 14.7 µM [inhibitor, single point]. In the case of CC(C)(C)SCCNC(=O)/C=C/c1ccc([N+](=O)[O-])cc1, the Potency is reported as inconclusive: 11.7 µM [inhibitor, single point]. For CC(C)(C)CC(C)(C)c1ccc(O)c(Cc2ccc(Cl)cc2Cl)c1, the Potency was active: 3.01 µM. With O=C(CNc1cccc2ccccc12)N/N=C/C(Br)=C/c1ccccc1 the “activity change, negative = inhibition” value was inactive: 14.7%. In the case of COc1ccc(C2c3ccc(O)cc3Oc3ncn(CCCO)c(=N)c32)cc1 (stereo unspecified), the Potency is reported as inconclusive: 18.5 µM [inhibitor, single point]. In the case of COc1ccc(CNC(=O)CCS(=O)(=O)c2ccc3c(c2)NC(=O)CS3)cc1, the Potency is reported as active: 14.7 µM. With CCN(CC)CCN(C(=O)c1ccc2c(c1)CCCC2)c1nc2cc(OC)c(OC)cc2s1 the Potency was inconclusive: 16.5 µM [inhibitor, single point]. With CCN(CCn1cccn1)C(=O)c1cccc(OC2CCN(S(C)(=O)=O)CC2)c1 the Potency was active: 10.4 µM. For c1csc(-c2ncc3ccccn23)c1, the Potency was inconclusive: 18.5 µM [inhibitor, single point]. In the case of CCn1cc(C2=NOC(C(=O)Nc3cccc(C(C)=O)c3)C2)c(C)n1 (stereo unspecified), the Potency is reported as inconclusive: 10.4 µM [inhibitor, single point]. In the case of c1ccc(COC2CCCN(Cc3nc(-c4cnccn4)no3)C2)nc1 (stereo unspecified), the “activity change, negative = inhibition” value is reported as inactive: -2.57%. In the case of CC(=O)Nc1ccc(NC(=O)C2CCCN(c3nnc(-n4cccc4)s3)C2)cc1 (stereo unspecified), the Potency is reported as inconclusive: 11.7 µM [inhibitor, single point]. In the case of O=C(CSc1ccc2nnc(-c3cccc(F)c3)n2n1)N1CCCc2ccccc21, the Potency is reported as inconclusive: 7.38 µM [inhibitor, partial curve, poor fit]. For O=C1CCN(C(=O)c2cccs2)c2ccccc21, the “activity change, negative = inhibition” value was inactive: -13%. With CC1(C)Cc2c(sc3nc(SCC(=O)O)[nH]c(=O)c23)CO1 the Potency was inconclusive: 18.5 µM [inhibitor, single point]. In the case of CCOC(=O)c1c(NC(=O)c2ccc(S(=O)(=O)N3CCOCC3)cc2)sc2c1CCN(C)C2, the Potency is reported as inconclusive: 0.657 µM [inhibitor, full curve, poor fit]. For CCCNC(=O)NC(=O)COC(=O)c1ccc(S(=O)(=O)N(C)c2ccccc2OC)cc1, the “activity change, negative = inhibition” value was inactive: -7.98%. For O=C(Cc1ccc(Cl)cc1)NCCS(=O)(=O)N1CCN(c2ccccc2F)CC1, the Potency was inconclusive: 2.94 µM [inhibitor, single point]. With CCN(CC)Cc1c(O)ccc2c(=O)c(-c3ccc4c(c3)OCCO4)coc12 the Potency was inconclusive: 10.4 µM [inhibitor, single point]. In the case of c1cncc(CNc2ncnc3ccc(-c4ccoc4)cc23)c1, the Potency is reported as “inactive and inconclusive: 18.5 µM [inhibitor, single point]”. In the case of O=C(Nc1ccccc1)C1=C[C@@H](C2CC2)C[C@@H](OCCCCO)O1, the “activity change, negative = inhibition” value is reported as inactive: 82.2%. For CCOc1ccc(CNC(=O)CN2C(=O)C(c3ccccc3)Oc3cccnc32)cc1 (stereo unspecified), the Potency was inconclusive: 18.5 µM [inhibitor, single point]. In the case of O=c1cc(CN2CCCCCC2)nc2sccn12, the Potency is reported as inconclusive: 14.7 µM [inhibitor, partial curve, poor fit]. For O=C(Nc1ccccn1)Nc1cccs1, the Potency was inconclusive: 0.37 µM [inhibitor, full curve, poor fit]. For COc1ccc(/C=N/NC(=O)c2[nH]c3ccc(Cl)cc3c2-c2ccccc2)c(C(=O)O)c1OC, the “activity change, negative = inhibition” value was inactive: 4.46%. For Cn1cccc1/C=C1\SC(=O)N(CC(=O)Nc2ccc(F)cc2)C1=O, the Potency was inconclusive: 18.5 µM [inhibitor, single point]. For O=C(NCc1ccccc1)c1cc[n+]([O-])cc1, the Potency was inconclusive: 0.37 µM [inhibitor, full curve]. In the case of O=C(NCc1ccccn1)C1CCCN(Cc2cnn(-c3ccccc3)c2-n2cccc2)C1 (stereo unspecified), the “activity change, negative = inhibition” value is reported as inactive: 0.823%. For O=C(NNS(=O)(=O)c1ccc(Cl)cc1)NC1CCCCC1, the “activity change, negative = inhibition” value was inactive: 54.7%. In the case of O=C(NCC1CCCN(Cc2cccc(F)c2)C1)c1cccc2ccccc12 (stereo unspecified), the Potency is reported as inconclusive: 1.17 µM [inhibitor, single point]. With c1ccc(-c2nnsc2-c2nc3ccccc3[nH]2)cc1 the “activity change, negative = inhibition” value was inactive: 0.236%. With Cn1c(N)c(C(=O)COC(=O)c2cc(C3CC3)nc3ccccc23)c(=O)n(Cc2ccccc2)c1=O the Potency was inconclusive: 18.5 µM [inhibitor, single point]. In the case of CN1CCN(c2c(F)cc3c(=O)c(C(=O)O)cn4c3c2OCN4C)CC1, the Potency is reported as “inactive and active: 15.1 µM”. In the case of COc1cc(C2Nc3ccccc3NC3=C2C(=O)CC(C)(C)C3)cc(OC)c1OC (stereo unspecified), the Potency is reported as inconclusive: 18.5 µM [inhibitor, single point]. For Cc1csc(=Nc2ccccc2)n1CCCN1CCCC1=O, the Potency was inconclusive: 2.62 µM [inhibitor, partial curve, poor fit]. In the case of O=C(NCc1ccc(F)cc1)C1CCCN(c2cnccn2)C1 (stereo unspecified), the Potency is reported as inconclusive: 18.5 µM [inhibitor, single point]. In the case of CCC(C)N1CCC(Oc2ccc(C(=O)NCc3ccccn3)cc2)CC1 (stereo unspecified), the Potency is reported as active: 10.4 µM. With CCOC(=O)C1=NNC2(c3ccc(Cl)cc3)C(=O)N(c3cc(C)cc(C)c3)C(=O)C12 (stereo unspecified) the “activity change, negative = inhibition” value was inactive: 0%. For Cc1cc(SCC(=O)N/N=C/c2ccc(O)c(O)c2)nc2ccccc12, the “activity change, negative = inhibition” value was inactive: 55.2%. For COC(=O)C1=C(C)NC(=O)NC1c1ccc(N2CCC(c3ccccc3)=N2)cc1 (stereo unspecified), the Potency was inconclusive: 16.5 µM [inhibitor, single point]. In the case of CNc1cc(N2CCCCCC2)ccc1[N+](=O)[O-], the “activity change, negative = inhibition” value is reported as inactive: 10.1%. In the case of Cc1ccc(S(=O)(=O)CCC(=O)Nc2nc(-c3ccncc3)cs2)cc1, the “activity change, negative = inhibition” value is reported as inactive: 26.9%. In the case of CN1CCN(c2ccc(NC(=O)c3cccc(S(=O)(=O)N4CCCC4)c3)cc2)CC1, the “activity change, negative = inhibition” value is reported as inactive: 4.95%. In the case of Cc1sc2nc(CN3CCOCC3)nc(NS(=O)(=O)c3cc(Cl)ccc3Cl)c2c1C, the Potency is reported as inconclusive: 18.5 µM [inhibitor, single point]. For COc1ccc(C(C)=O)cc1COC(=O)CCC(=O)N(CC(C)C)c1c(N)n(CC(C)C)c(=O)[nH]c1=O, the Potency was inconclusive: 18.5 µM [inhibitor, single point]. With COc1ccc(NC(=O)C(Cc2ccccc2)n2cccc2)cc1 (stereo unspecified) the Potency was inconclusive: 18.5 µM [inhibitor, single point]. In the case of N#Cc1ccc(/C=N/NC(=S)Nc2ccc(S(=O)(=O)N3CCOCC3)cc2)cc1, the Potency is reported as inconclusive: 10.4 µM [inhibitor, single point]. With Cc1ccc(NC(=O)CCCCCN2C(=O)[C@@H]3Cc4ccccc4CN3C2=O)c(C)c1 the Potency was inconclusive: 14.7 µM [inhibitor, partial curve]. For C=CCn1c(SCC(=O)Nc2ccc(OC)cc2)nnc1-c1cnccn1, the Potency was inconclusive: 18.5 µM [inhibitor, single point]. For COc1ccc(Cl)cc1C(=O)Nc1ccc2c(c1)OCCO2, the Potency was inconclusive: 18.5 µM [inhibitor, single point]. For N#C/C(=C\c1ccc(OCc2cccc(C(=O)O)c2)cc1)C(=O)NCc1ccco1, the “activity change, negative = inhibition” value was inactive: 319%. In the case of Cc1nc2ccc(NC(=O)c3ccc(Cl)nc3)cc2s1, the Potency is reported as inconclusive: 13.1 µM [inhibitor, single point]. For CCN(CC)CC(O)CN(c1ccccc1)S(=O)(=O)c1ccc2ccccc2c1 (stereo unspecified), the Potency was inconclusive: 11.7 µM [inhibitor, single point]. For CCOc1ccc(CNC(=O)CCC(=O)N2Cc3ccccc3Oc3ncccc32)cc1, the Potency was inconclusive: 11.7 µM [inhibitor, single point]. For O=C1OCCC1Sc1nnnn1-c1ccc(Cl)cc1 (stereo unspecified), the Potency was inconclusive: 11.7 µM [inhibitor, partial curve, poor fit]. With OC(CCCN1CCCCC1)(c1ccccc1)c1ccccc1 the Potency was inconclusive: 11.7 µM [inhibitor, partial curve, poor fit]. For Cc1ccccc1NC(=O)CN(C)S(=O)(=O)c1ccc2c(c1)n(C)c(=O)c(=O)n2C, the Potency was active: 10.4 µM. For CC(=O)Nc1ccc(C2=NN(c3ccccc3)C(c3cccs3)C2)cc1 (stereo unspecified), the Potency was inconclusive: 18.5 µM [inhibitor, single point]. For CC(=O)NC(CCS(C)(=O)=O)C(=O)Nc1cccc(C(C)=O)c1 (stereo unspecified), the Potency was inconclusive: 0.522 µM [inhibitor, full curve, poor fit]. In the case of Cc1ccccc1-n1nc2c(c1NC(=O)/C=C\c1ccc3c(c1)OCO3)CSC2, the Potency is reported as active: 11.7 µM. With CCN(CC)CCOC(=O)C(c1ccccc1)c1ccccc1 the Potency was “inactive”. With CCN1CCN(C(=O)C2CCN(S(=O)(=O)c3cc(Cl)ccc3Cl)CC2)CC1 the “activity change, negative = inhibition” value was inactive: 17.3%. For COc1ccc(-n2c(CNCCc3ccc(C)cc3)nc3ccccc3c2=O)cc1, the Potency was inconclusive: 10.4 µM [inhibitor, single point]. For Nc1ccc(C(=O)NCc2ccccc2)cc1, the “activity change, negative = inhibition” value was inactive: 52.7%. In the case of NC(=S)C1COc2ccccc2O1 (stereo unspecified), the “activity change, negative = inhibition” value is reported as inactive: 29.8%. In the case of COc1ccc(N(C(=O)c2ccncc2)S(=O)(=O)c2ccccc2)cc1, the Potency is reported as inconclusive: 9.28 µM [inhibitor, partial curve, poor fit].
